Laboratory results: PubChem BioAssay AID686943 (Drosophila RNAi Screening Center, 2013)
Screen: 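Knockdowns that increase or decrease active ERK after insulin receptor stimulation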 (primary screen). System: Drosophila S2R+ haemocyte-like cells expressing YFP-tagged ERK (Rolled). Knock-down reagent: long dsRNA against Drosophila genes. Treatment: insulin stimulation versus unstimulated cells; dose and duration not given. Detection: 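Antibody staining for doubly phosphorylated ERK divided by ERK-YFP signal, as plate z-scores, in insulin-treated and untreated cells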. Scale: replicate 1, z-score of dpERK with insulin and replicate 2, z-score of dpERK with insulin: higher = more active ERK per ERK-YFP after insulin.
The screen tested about 23,000 reagents; below is a random part of those that have a named target and a result. 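Extra replicates exist only for a retested subset of genes; insulin dose and duration not given; both raised and lowered dpERK matter.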 Names joined by + are all predicted targets of the reagent. Further read-outs or replicates are left out here. Not given: the amount of reagent, the time to read-out.

CG13029 [DRSC09909]
- replicate 1, z-score of dpERK with insulin: 1.56
- replicate 2, z-score of dpERK with insulin: 1.26

CG32655 [DRSC18925]
- replicate 1, z-score of dpERK with insulin: -0.16
- replicate 2, z-score of dpERK with insulin: -0.31

snoRNA:U31:54Ec + snoRNA:snR38:54Eb + snoRNA:U27:54Eb + 8 more [DRSC06458]
- replicate 1, z-score of dpERK with insulin: 0.07
- replicate 2, z-score of dpERK with insulin: -0.06

CG13002 [DRSC19521]
- replicate 1, z-score of dpERK with insulin: -0.05
- replicate 2, z-score of dpERK with insulin: -0.47

CG1812 [DRSC20557]
- replicate 1, z-score of dpERK with insulin: 0.49
- replicate 2, z-score of dpERK with insulin: -0.71

NaPi-T (Na[+]-dependent inorganic phosphate cotransporter) [DRSC07476]
- replicate 1, z-score of dpERK with insulin: 0.95
- replicate 2, z-score of dpERK with insulin: 0.1

Gr47b (Gustatory receptor 47b) [DRSC05275]
- replicate 1, z-score of dpERK with insulin: 0.24
- replicate 2, z-score of dpERK with insulin: -0.17

CG9067 [DRSC07328]
- replicate 1, z-score of dpERK with insulin: 1.42
- replicate 2, z-score of dpERK with insulin: -0.69

Next part (2 carried over from the part before).
Gr47b (Gustatory receptor 47b) [DRSC05275]
- replicate 1, z-score of dpERK with insulin: 0.24
- replicate 2, z-score of dpERK with insulin: -0.17

CG9067 [DRSC07328]
- replicate 1, z-score of dpERK with insulin: 1.42
- replicate 2, z-score of dpERK with insulin: -0.69

CG8389 [DRSC07158]
- replicate 1, z-score of dpERK with insulin: 0.38
- replicate 2, z-score of dpERK with insulin: 0.15

CG8389 [DRSC22855]
- replicate 1, z-score of dpERK with insulin: 0.5
- replicate 2, z-score of dpERK with insulin: 0.73

CG8851 [DRSC00718]
- replicate 1, z-score of dpERK with insulin: -0.04
- replicate 2, z-score of dpERK with insulin: -0.61

dpr18 (defective proboscis extension response 18) [DRSC19606]
- replicate 1, z-score of dpERK with insulin: -0.03
- replicate 2, z-score of dpERK with insulin: -0.09
